Measurements as given in publication PMC3420917, “A Combinatorial Amino Acid Code for RNA Recognition by Pentatricopeptide Repeat Proteins” (PLoS Genetics, 2012).
These are yes or no findings as the source states them, for the method shown.

Molecular target: Recombinant PPR10 (maize) (UniProt B8Y6I0)
Assay: condition: only with 3 µM 17-nt minimal RNA ligand (equimolar with 3 µM rPPR10); AUC; sedimentation velocity; rPPR10 at 3 µM with its 17-nt minimal RNA ligand at 3 µM (equimolar, saturating); 20°C, 50,000 rpm, interference optics; 250 mM NaCl, 50 mM Tris-HCl pH 7.5, 5 mM ß-mercaptoethanol; both purified

B1: Recombinant PPR10 (natural protein, maize, UniProt B8Y6I0 96-786, looked up)
chain: ASRRDELLRADITSLLKALELSGHWEWALALLRWAGKEGAADASALEMVVRALGREGQHDAVCALLDETPLPPGSRLDVRAYTTVLHALSRAGRYERALELFAELRRQGVAPTLVTYNVVLDVYGRMGRSWPRIVALLDEMRAAGVEPDGFTASTVIAACCRDGLVDEAVAFFEDLKARGHAPCVVTYNALLQVFGKAGNYTEALRVLGEMEQNGCQPDAVTYNELAGTYARAGFFEEAARCLDTMASKGLLPNAFTYNTVMTAYGNVGKVDEALALFDQMKKTGFVPNVNTYNLVLGMLGKKSRFTVMLEMLGEMSRSGCTPNRVTWNTMLAVCGKRGMEDYVTRVLEGMRSCGVELSRDTYNTLIAAYGRCGSRTNAFKMYNEMTSAGFTPCITTYNALLNVLSRQGDWSTAQSIVSKMRTKGFKPNEQSYSLLLQCYAKGGNVAGIAAIENEVYGSGAVFPSWVILRTLVIANFKCRRLDGMETAFQEVKARGYNPDLVIFNSMLSIYAKNGMYSKATEVFDSIKRSGLSPDLITYNSLMDMYAKCSESWEAEKILNQLKCSQTMKPDVVSYNTVINGFCKQGLVKEAQRVLSEMVADGMAPCAVTYHTLVGGYSSLEMFSEAREVIGYMVQHGLKPMELTYRRVVESYCRAKRFEEARGFLSEVSETDLDFDKKALEAYIEDAQFGR
notes: PPR10, maize chloroplast pentatricopeptide repeat protein (19 PPR motifs); mature PPR10 lacking the plastid targeting peptide; monomeric molecular weight of rPPR10 printed as 82.6 kDa; also called rPPR10
  binding: no binding
